Laboratory results published in the supplement of paper PMC8728848.
The list shows a part of the results.

What was measured:
Experiment in all cases: glycan array binding signal (z-score within array); higher = stronger binding
Conditions in all cases: glycan notation: IUPAC condensed, linker removed
[1] = target: Neu5Ac(a2-3)Gal(b1-4)GlcNAc(b1-2)Man(a1-3)[Neu5Ac(a2-6)Gal(b1-4)GlcNAc(b1-2)Man(a1-6)]Man(b1-4)GlcNAc(b1-4)GlcNAc
Summary of the method: (§1)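 Arrays were curated from the Consortium for Functional Glycomics database, 3228 in total, and kept only where the protein sequence was available. Binding is expressed as a within-array Z-score. This score was averaged across arrays of the same protein sequence at different concentrations or buffers and across linkers, and negative values can be read as non-binding.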

[2] = target: Neu5Ac(a2-3)Gal(b1-4)GlcNAc(b1-2)[Neu5Ac(a2-3)Gal(b1-4)GlcNAc(b1-4)]Man(a1-3)[GlcNAc(b1-4)][Neu5Ac(a2-3)Gal(b1-4)GlcNAc(b1-2)[Neu5Ac(a2-3)Gal(b1-4)GlcNAc(b1-6)]Man(a1-6)]Man(b1-4)GlcNAc(b1-4)GlcNAc
Summary of the method: as §1

[3] = target: Neu5Ac(a2-3)Gal(b1-4)GlcNAc(b1-2)[Neu5Ac(a2-3)Gal(b1-4)GlcNAc(b1-4)]Man(a1-3)[GlcNAc(b1-4)][Neu5Ac(a2-3)Gal(b1-4)GlcNAc(b1-4)Man(a1-6)]Man(b1-4)GlcNAc(b1-4)GlcNAc
Summary of the method: as §1

[4] = target: Neu5Ac(a2-3)Gal(b1-4)GlcNAc(b1-2)[Neu5Ac(a2-3)Gal(b1-4)GlcNAc(b1-6)]Man(a1-6)[Neu5Ac(a2-3)Gal(b1-4)GlcNAc(b1-2)Man(a1-3)][GlcNAc(b1-4)]Man(b1-4)GlcNAc(b1-4)GlcNAc
Summary of the method: as §1

[5] = target: Neu5Ac(a2-3)Gal(b1-4)GlcNAc(b1-3)Gal
Summary of the method: as §1

[6] = target: Neu5Ac(a2-3)Gal(b1-4)GlcNAc(b1-3)Gal(b1-3)GlcNAc
Summary of the method: as §1

[7] = target: Neu5Ac(a2-3)Gal(b1-4)GlcNAc(b1-3)Gal(b1-4)GlcNAc
Summary of the method: as §1

[8] = target: Neu5Ac(a2-3)Gal(b1-4)GlcNAc(b1-3)Gal(b1-4)GlcNAc(b1-2)Man(a1-3)[Neu5Ac(a2-3)Gal(b1-4)GlcNAc(b1-3)Gal(b1-4)GlcNAc(b1-2)Man(a1-6)]Man(b1-4)GlcNAc(b1-4)GlcNAc
Summary of the method: as §1

[9] = target: Neu5Ac(a2-3)Gal(b1-4)GlcNAc(b1-3)Gal(b1-4)GlcNAc(b1-3)Gal(b1-4)GlcNAc
Summary of the method: as §1

[10] = target: Neu5Ac(a2-3)Gal(b1-4)GlcNAc(b1-3)Gal(b1-4)GlcNAc(b1-3)Gal(b1-4)GlcNAc(b1-2)Man(a1-3)[Neu5Ac(a2-3)Gal(b1-4)GlcNAc(b1-3)Gal(b1-4)GlcNAc(b1-3)Gal(b1-4)GlcNAc(b1-2)Man(a1-6)]GalNAc
Summary of the method: as §1

[11] = target: Neu5Ac(a2-3)Gal(b1-4)GlcNAc(b1-3)Gal(b1-4)GlcNAc(b1-3)GalNAc
Summary of the method: as §1

[12] = target: Neu5Ac(a2-3)Gal(b1-4)GlcNAc(b1-3)Gal(b1-4)GlcNAc(b1-3)[Neu5Ac(a2-3)Gal(b1-4)GlcNAc(b1-3)Gal(b1-4)GlcNAc(b1-6)]GalNAc
Summary of the method: as §1

[13] = target: Neu5Ac(a2-3)Gal(b1-4)GlcNAc(b1-3)Gal(b1-4)GlcNAc(b1-6)[Gal(b1-3)]GalNAc
Summary of the method: as §1

[14] = target: Neu5Ac(a2-3)Gal(b1-4)GlcNAc(b1-3)Gal(b1-4)[Fuc(a1-3)]GlcNAc
Summary of the method: as §1

[15] = target: Neu5Ac(a2-3)Gal(b1-4)GlcNAc(b1-3)GalNAc
Summary of the method: as §1

[16] = target: Neu5Ac(a2-3)Gal(b1-4)GlcNAc(b1-3)[Neu5Ac(a2-3)Gal(b1-4)GlcNAc(b1-6)]GalNAc
Summary of the method: as §1

[17] = target: Neu5Ac(a2-3)Gal(b1-4)GlcNAc(b1-6)GalNAc
Summary of the method: as §1

[18] = target: Neu5Ac(a2-3)Gal(b1-4)GlcNAc(b1-6)[Gal(b1-3)]GalNAc
Summary of the method: as §1

[19] = target: Neu5Ac(a2-3)Gal(b1-4)GlcNAc(b1-6)[Neu5Ac(a2-3)Gal(b1-3)]GalNAc
Summary of the method: as §1

[20] = target: Neu5Ac(a2-3)Gal(b1-4)GlcNAc6S
Summary of the method: as §1

[21] = target: Neu5Ac(a2-3)Gal(b1-4)[Fuc(a1-3)]GlcNAc
Summary of the method: as §1

[22] = target: Neu5Ac(a2-3)Gal(b1-4)[Fuc(a1-3)]GlcNAc(b1-2)Man
Summary of the method: as §1

[23] = target: Neu5Ac(a2-3)Gal(b1-4)[Fuc(a1-3)]GlcNAc(b1-3)Gal
Summary of the method: as §1

[24] = target: Neu5Ac(a2-3)Gal(b1-4)[Fuc(a1-3)]GlcNAc(b1-3)Gal(b1-4)GlcNAc
Summary of the method: as §1

[25] = target: Neu5Ac(a2-3)Gal(b1-4)[Fuc(a1-3)]GlcNAc(b1-3)Gal(b1-4)[Fuc(a1-3)]GlcNAc(b1-3)Gal(b1-4)[Fuc(a1-3)]GlcNAc
Summary of the method: as §1

[26] = target: Neu5Ac(a2-3)Gal(b1-4)[Fuc(a1-3)]GlcNAc(b1-3)GalNAc
Summary of the method: as §1

[27] = target: Neu5Ac(a2-3)Gal(b1-4)[Fuc(a1-3)]GlcNAc(b1-6)[Gal(b1-3)]GalNAc
Summary of the method: as §1

[28] = target: Neu5Ac(a2-3)Gal(b1-4)[Fuc(a1-3)]GlcNAc(b1-6)[Neu5Ac(a2-3)Gal(b1-3)]GalNAc
Summary of the method: as §1

[29] = target: Neu5Ac(a2-3)Gal(b1-4)[Fuc(a1-3)]GlcNAc6S
Summary of the method: as §1

[30] = target: Neu5Ac(a2-3)Gal6S(b1-4)GlcNAc
Summary of the method: as §1

[31] = target: Neu5Ac(a2-3)Gal6S(b1-4)[Fuc(a1-3)]GlcNAc
Summary of the method: as §1

[32] = target: Neu5Ac(a2-3)GalNAc
Summary of the method: as §1

[33] = target: Neu5Ac(a2-3)GalNAc(b1-4)GlcNAc
Summary of the method: as §1

[34] = target: Neu5Ac(a2-3)[GalNAc(b1-4)]Gal(b1-4)Glc
Summary of the method: as §1

[35] = target: Neu5Ac(a2-3)[GalNAc(b1-4)]Gal(b1-4)GlcNAc
Summary of the method: as §1

[36] = target: Neu5Ac(a2-3)[GalNAc(b1-4)]Gal(b1-4)GlcNAc(b1-3)GalNAc
Summary of the method: as §1

[37] = target: Neu5Ac(a2-3)[Neu5Ac(a2-6)]GalNAc
Summary of the method: as §1

[38] = target: Neu5Ac(a2-6)Gal
Summary of the method: as §1

[39] = target: Neu5Ac(a2-6)Gal(b1-3)GlcNAc(b1-3)[Gal(b1-4)GlcNAc(b1-6)]Gal(b1-4)Glc
Summary of the method: as §1

[40] = target: Neu5Ac(a2-6)Gal(b1-4)Glc
Summary of the method: as §1

[41] = target: Neu5Ac(a2-6)Gal(b1-4)GlcNAc
Summary of the method: as §1

[42] = target: Neu5Ac(a2-6)Gal(b1-4)GlcNAc(b1-2)Man
Summary of the method: as §1

[43] = target: Neu5Ac(a2-6)Gal(b1-4)GlcNAc(b1-2)Man(a1-3)Man(b1-4)GlcNAc(b1-4)GlcNAc
Summary of the method: as §1

[44] = target: Neu5Ac(a2-6)Gal(b1-4)GlcNAc(b1-2)Man(a1-3)[Gal(b1-4)GlcNAc(b1-2)Man(a1-6)]Man(b1-4)GlcNAc(b1-4)GlcNAc
Summary of the method: as §1

[45] = target: Neu5Ac(a2-6)Gal(b1-4)GlcNAc(b1-2)Man(a1-3)[GlcNAc(b1-2)Man(a1-6)]Man(b1-4)GlcNAc(b1-4)GlcNAc
Summary of the method: as §1

B1: XTP3-B-MRH2 (Homo sapiens), Q96DZ1 (protein)
chain: EFLSGSYCFRGGVGWWKYEFCYGKHVHQYHEDKDSGKTSVVVGTWNQEEHIEWAKKNTARAYHLQDDGTQTVRMVSHFYGNGDICDITDKPRQVTVKLKCKESDSPHAVTVYMLEPHSCQYILGVESPVICKILDTA
For B1, the “glycan array binding signal (z-score)” value [1] was -0.307, the “glycan array binding signal (z-score)” value [2] was -1.25 and the “glycan array binding signal (z-score)” value [3] was -0.347. The “glycan array binding signal (z-score)” value [4] was -1.02, the “glycan array binding signal (z-score)” value [5] was -1.44 and the “glycan array binding signal (z-score)” value [6] was -0.02. For the same binder, the “glycan array binding signal (z-score)” value [7] was 1.22, the “glycan array binding signal (z-score)” value [8] was -0.486 and the “glycan array binding signal (z-score)” value [9] was 0.505. For the same binder, the “glycan array binding signal (z-score)” value [10] was 0.813, the “glycan array binding signal (z-score)” value [11] was -0.914 and the “glycan array binding signal (z-score)” value [12] was 1.25. For the same binder, the “glycan array binding signal (z-score)” value [13] was -0.695, the “glycan array binding signal (z-score)” value [14] was -0.481 and the “glycan array binding signal (z-score)” value [15] was -0.754. For the same binder, the “glycan array binding signal (z-score)” value [16] was -1.1, the “glycan array binding signal (z-score)” value [17] was -0.311 and the “glycan array binding signal (z-score)” value [18] was 0.038. For the same binder, the “glycan array binding signal (z-score)” value [19] was -0.781, the “glycan array binding signal (z-score)” value [20] was -0.351 and the “glycan array binding signal (z-score)” value [21] was -0.945. The “glycan array binding signal (z-score)” value [22] was -0.476, the “glycan array binding signal (z-score)” value [23] was 0.532 and the “glycan array binding signal (z-score)” value [24] was 0.32. For the same binder, the “glycan array binding signal (z-score)” value [25] was 0.208, the “glycan array binding signal (z-score)” value [26] was 1.32 and the “glycan array binding signal (z-score)” value [27] was -0.994. The “glycan array binding signal (z-score)” value [28] was 0.723, the “glycan array binding signal (z-score)” value [29] was 0.713 and the “glycan array binding signal (z-score)” value [30] was 0.885. For the same binder, the “glycan array binding signal (z-score)” value [31] was -0.291, the “glycan array binding signal (z-score)” value [32] was -0.267 and the “glycan array binding signal (z-score)” value [33] was -0.479. For the same binder, the “glycan array binding signal (z-score)” value [34] was -1.24, the “glycan array binding signal (z-score)” value [35] was -0.067 and the “glycan array binding signal (z-score)” value [36] was 1.17. For the same binder, the “glycan array binding signal (z-score)” value [37] was -0.852, the “glycan array binding signal (z-score)” value [38] was -0.213 and the “glycan array binding signal (z-score)” value [39] was -0.406. The “glycan array binding signal (z-score)” value [40] was 0.239, the “glycan array binding signal (z-score)” value [41] was -1.02 and the “glycan array binding signal (z-score)” value [42] was 0.067. For the same binder, the “glycan array binding signal (z-score)” value [43] was -0.836, the “glycan array binding signal (z-score)” value [44] was -0.47 and the “glycan array binding signal (z-score)” value [45] was -1.02.
